The list shows a part of the results. These are raw signals, not scaled to a control.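 In the initial screen, polymyxin B was used at a concentration that permeabilizes Salmonella's outer membrane but not its inner membrane. Maximum growth was set by DMSO wells with or without polymyxin B. Since plates varied, data were ranked per plate, and compounds giving the lowest OD600 advanced as hits.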
Tested on: Salmonella enterica serovar Typhimurium SL1344
Assay: bacterial growth OD600 after 18 h with compound and polymyxin B; higher = more bacterial growth (less inhibition)
Conditions: 50 µM, Mueller-Hinton broth

Row | SMILES | bacterial growth OD600 (polymyxin B 1 µg/mL) | bacterial growth OD600 (polymyxin B 0.75 µg/mL)
1 | Cc1ccc(OCc2cc(C(=O)N(C)C3CCCCC3)no2)cc1C | 0.002 | 
2 | COc1cccc(CN2C(=O)NC(C)(C3CCN(C(=O)c4cccc(N(C)C)c4)CC3)C2=O)c1OC (stereo not given) |  | 0.84
3 | CCc1noc(C)c1C(=O)N1CCC(C2CCN(Cc3cccnc3)CC2)C1 (stereo not given) |  | 0.854
4 | COc1ccccc1C1(CC(=O)N2CCN(Cc3ccc4c(c3)OCO4)CC2)CC(=O)N(C)C1=O (stereo not given) |  | 0.826
5 | CC(Cc1ccccn1)NC1CCN(c2ccc(CC(=O)NCCc3cccc(F)c3)cc2)CC1 (stereo not given) |  | 0.852
6 | COCCN1CCN(C(=O)CC2(c3ccccc3)CC(=O)N(CCCOc3cccnc3)C2=O)CC1 (stereo not given) |  | 0.919
7 | CCc1n[nH]c(C(=O)N2CCCC(N3CCN(c4ccccc4C)CC3)C2)c1C (stereo not given) | 0.743 | 
8 | CO[C@H]1[C@H](NC(=O)c2cccs2)c2ccccc2C12CCN(Cc1c(F)ccc(F)c1F)CC2 |  | 0.683
9 | CCCNC(=O)NCc1cccnc1N(CC)CC | 1 | 
10 | COc1ccc(-c2cnnc(NCCc3ccccc3F)n2)c(OC)c1 |  | 0.009
11 | COCCCN1C(=O)CC(CC(=O)NCc2cccc(OC)c2OC)(c2ccccc2C)C1=O (stereo not given) |  | 0.832
12 | Cc1ccc(NC2CCCN(C(=O)C3CCC3)C2)cc1C (stereo not given) | 0.862 | 
13 | CN(C)c1ncccc1CNCc1cccc2cccnc12 |  | 0.946
14 | COc1ccc(CN2CCN(CCCn3cccn3)CC2CCO)c(F)c1 (stereo not given) | 0.811 | 
15 | O=C(NC1CCOCC1)c1csc2nc(-c3ccc(C(F)(F)F)cc3)cn12 | 1.04 | 
16 | Cc1ccccc1-n1ncc(C(C)NC(=O)c2ccsc2)c1C (stereo not given) | 0.926 | 
17 | COCCN(C)C(=O)C1CCN(c2nc(-c3ccccc3)nc3c2CCC3)CC1 | 0.816 | 
18 | Cc1nc(CN2CCCC(CO)(Cc3cccc(Cl)c3)C2)c[nH]1 (stereo not given) |  | 0.861
19 | COc1cc(CC2(CCC(=O)NCC3(c4ccccc4)CCOCC3)CCC(=O)N2)ccc1F (stereo not given) |  | 0.933
20 | Cc1cccc(-c2cnc(C)nc2C2CCCN(C(=O)C34CC5CC(CC(C5)C3)C4)C2)c1 (stereo not given) |  | 0.002

Quoted at random: two compounds from above.
Row | SMILES | bacterial growth OD600 (polymyxin B 1 µg/mL) | bacterial growth OD600 (polymyxin B 0.75 µg/mL)
17 | COCCN(C)C(=O)C1CCN(c2nc(-c3ccccc3)nc3c2CCC3)CC1 | 0.816 | 
20 | Cc1cccc(-c2cnc(C)nc2C2CCCN(C(=O)C34CC5CC(CC(C5)C3)C4)C2)c1 (stereo not given) |  | 0.002
